# Percent effect of library compounds

Chains of the proteins cited; added tags and fusions are not shown. Residues count along the entry.
UniProt I6X8D2, whole entry: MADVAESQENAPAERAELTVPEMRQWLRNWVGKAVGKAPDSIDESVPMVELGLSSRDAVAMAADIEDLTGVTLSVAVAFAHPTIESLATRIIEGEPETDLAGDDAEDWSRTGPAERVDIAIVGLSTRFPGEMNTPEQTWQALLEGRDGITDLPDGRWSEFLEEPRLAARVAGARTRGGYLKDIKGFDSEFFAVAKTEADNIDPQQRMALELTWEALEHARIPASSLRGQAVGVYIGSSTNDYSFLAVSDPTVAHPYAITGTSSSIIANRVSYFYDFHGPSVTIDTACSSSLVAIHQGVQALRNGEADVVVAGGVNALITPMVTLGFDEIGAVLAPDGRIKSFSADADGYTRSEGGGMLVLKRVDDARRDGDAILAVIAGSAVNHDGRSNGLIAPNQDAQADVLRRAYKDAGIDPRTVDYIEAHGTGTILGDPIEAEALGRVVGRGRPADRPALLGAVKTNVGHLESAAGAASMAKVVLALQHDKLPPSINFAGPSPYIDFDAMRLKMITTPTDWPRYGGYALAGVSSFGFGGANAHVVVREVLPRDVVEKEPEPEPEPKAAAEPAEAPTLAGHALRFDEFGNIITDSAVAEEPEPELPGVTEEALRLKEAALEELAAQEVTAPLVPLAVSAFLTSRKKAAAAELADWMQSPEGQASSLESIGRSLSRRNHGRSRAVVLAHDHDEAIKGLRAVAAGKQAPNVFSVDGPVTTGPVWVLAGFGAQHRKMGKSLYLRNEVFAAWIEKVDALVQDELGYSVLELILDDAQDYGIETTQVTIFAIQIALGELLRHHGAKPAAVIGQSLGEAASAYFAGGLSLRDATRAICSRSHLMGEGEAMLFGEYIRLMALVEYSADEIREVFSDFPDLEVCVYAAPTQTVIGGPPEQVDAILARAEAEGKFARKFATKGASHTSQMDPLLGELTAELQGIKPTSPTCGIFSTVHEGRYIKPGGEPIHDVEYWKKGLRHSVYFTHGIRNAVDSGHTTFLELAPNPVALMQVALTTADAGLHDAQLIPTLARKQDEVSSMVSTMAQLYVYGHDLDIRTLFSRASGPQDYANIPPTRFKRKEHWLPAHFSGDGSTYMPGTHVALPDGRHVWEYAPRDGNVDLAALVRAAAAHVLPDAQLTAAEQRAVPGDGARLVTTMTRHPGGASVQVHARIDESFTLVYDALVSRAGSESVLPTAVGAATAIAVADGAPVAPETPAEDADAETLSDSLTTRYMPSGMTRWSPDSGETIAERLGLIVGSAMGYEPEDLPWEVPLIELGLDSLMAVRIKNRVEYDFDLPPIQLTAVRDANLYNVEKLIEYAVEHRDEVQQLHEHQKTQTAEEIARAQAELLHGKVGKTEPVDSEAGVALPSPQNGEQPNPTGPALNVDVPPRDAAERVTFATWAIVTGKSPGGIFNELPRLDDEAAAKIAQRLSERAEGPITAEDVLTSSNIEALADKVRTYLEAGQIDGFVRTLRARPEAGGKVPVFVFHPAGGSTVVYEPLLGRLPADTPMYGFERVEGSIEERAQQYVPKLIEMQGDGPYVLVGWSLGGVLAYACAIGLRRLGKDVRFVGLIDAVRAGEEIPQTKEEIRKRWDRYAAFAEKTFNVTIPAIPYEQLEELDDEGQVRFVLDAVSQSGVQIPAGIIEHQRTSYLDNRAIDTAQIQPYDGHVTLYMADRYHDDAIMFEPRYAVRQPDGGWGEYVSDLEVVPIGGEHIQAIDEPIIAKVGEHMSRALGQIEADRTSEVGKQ
UniProt A4I591, 1-473: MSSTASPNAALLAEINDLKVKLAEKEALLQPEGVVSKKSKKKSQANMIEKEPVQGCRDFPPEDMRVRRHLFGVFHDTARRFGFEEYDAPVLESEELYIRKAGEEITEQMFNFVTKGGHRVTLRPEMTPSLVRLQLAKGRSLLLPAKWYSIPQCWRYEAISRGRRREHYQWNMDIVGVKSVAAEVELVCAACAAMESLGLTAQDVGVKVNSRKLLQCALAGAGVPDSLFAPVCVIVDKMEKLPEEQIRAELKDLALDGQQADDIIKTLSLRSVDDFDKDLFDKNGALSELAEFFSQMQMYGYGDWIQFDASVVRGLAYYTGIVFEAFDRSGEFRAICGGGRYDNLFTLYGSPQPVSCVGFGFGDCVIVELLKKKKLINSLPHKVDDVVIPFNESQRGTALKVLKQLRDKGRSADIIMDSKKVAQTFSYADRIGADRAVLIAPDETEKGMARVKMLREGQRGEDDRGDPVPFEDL

The values are deposited in ChEMBL (CHEMBL3988442, “University of Dundee, Small-Polar-MMV Screening Library” (2021)).

Pks13 thioesterase: 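Enzyme assay of the thioesterase domain of polyketide synthase 13; the read-out is not stated. Target: Polyketide synthase Pks13, Mycobacterium tuberculosis (UniProt I6X8D2). Compounds at 30 µM. The record gives no direction; the compounds picked for IC50 retests had high values, so higher reads as stronger inhibition. Of about 67,000 compounds tested this way, about 300 (0.46%) reached 50% or more in at least one test.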
LiHisRS: 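Enzyme assay of histidyl-tRNA synthetase; the read-out is not stated. Target: Histidine-tRNA ligase, Leishmania infantum (UniProt A4I591). Compounds at 30 µM. Direction is inferred from retests: higher values go with stronger inhibition. The assay is labelled LdHisRS but filed under L. infantum. Size under these conditions: about 69,000 compounds, about 410 of them at 50% or above in at least one test.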

Values are the deposited “Percent Effect”, in %. How 0% and 100% were set is not recorded. Most values in the screen are low, and negative values occur. This is an unselected part of the compounds tested. A dash means the value is not listed here; it may have been measured.

| # | Compound | Pks13 thioesterase | LiHisRS |
|---|---|---|---|
| 1 | `COc1cccc(OCC2CCCN(C(C)=O)C2)c1` (stereo not given) | -10.01% | 11.43% |
| 2 | `Cc1nccc(CNC(=O)NCCC(=O)N2CCCc3ccccc32)n1` | -43.61% | 8.29% |
| 3 | `CCC(C)CS(=O)(=O)NCCc1csc(N2CCCC2)n1` (stereo not given) | -41.82% | 7.853% |
| 4 | `CS(=O)(=O)N1CCC(Oc2ccc(C#N)cc2)CC1` | -13.81% | 10.62% |
| 5 | `Cc1nnc(CN(C)CCCOc2ccc(Cl)cc2)o1` | 0.5319% | 3.509% |
| 6 | `Cc1ccc(CN(C)CC2(O)CCCN(C)C2)o1` (stereo not given) | -4.271% | 10.34% |
| 7 | `CCOc1ccc(NC(C)C(=O)NCCc2cccs2)cc1CO` (stereo not given) | -1.413% | 33.87% |
| 8 | `Cc1cc(C2CCCCCN2Cc2cn(C)nc2C)no1` (stereo not given) | -9.447% | 18% |
| 9 | `Cc1cnc(N2CCC3(CC2)CC3CNC(=O)N(C)C)nc1` (stereo not given) | -22.47% | 2.632% |
| 10 | `Cc1c(NC(=O)c2ncn[nH]2)cccc1C(=O)NC(C)(C)C` | -7.875% | 14.16% |
| 11 | `Cn1c(CN2CCCCCC2)cc(=O)c(O)c1CN1CCCC1` | -20.66% | 13.04% |
| 12 | `COc1cccc(C(=O)Oc2cc(=O)n3cccc(C)c3n2)c1` | -0.747% | 5.263% |
| 13 | `Cc1nnc(CSc2ccccn2)o1` | -5.402% | 16.44% |
| 14 | `CN(C)C(=O)CN1C[C@@H]2CC[C@H](C1)N(C(=O)Cc1ccccc1Cl)C2` | -15.35% | 1.905% |
| 15 | `CN1CCC2(COCCN(Cc3ccc4c(c3)OCO4)C2)C1` (stereo not given) | -0.5637% | 5.882% |
| 16 | `CC(NC1(CNC(=O)Cn2cccn2)CCOCC1)c1ccccc1` (stereo not given) | -6.804% | 16.98% |
| 17 | `O=C(NCC1CC1)[C@H]1CC[C@@H]2[C@@H](CCN2Cc2ccoc2)O1` | -5.786% | 15.09% |
| 18 | `CC1(C)CN(C(CNC2=NCCN2)c2ccc(Cl)cc2)CCO1` (stereo not given) | -34.59% | 10.42% |
| 19 | `COCCCNC(=O)c1cc(-c2cnc(N(C)C)nc2)cn1CC1CC1` | 9.692% | 6.849% |
| 20 | `Cc1c(C(=O)N2CCCSCC2)nnn1-c1ccccc1Cl` | -17.35% | 23.08% |
| 21 | `Cc1ccc(N2CCCC(NCc3ccc4c(c3)CCO4)C2)nn1` (stereo not given) | -12.76% | 4.386% |
| 22 | `CC[C@H]1COCCN1C(=O)c1cnc(N2CCN(C)CC2)nc1C` | -2.989% | 16.67% |
| 23 | `CC(C)c1nn(C)c(N2CCOCC2)c1CNCC(=O)N(C)C` | -12.9% | -2.128% |
| 24 | `OCC1(CC2CC2)CCCN(Cc2cnc(C3CCCCC3)nc2)C1` (stereo not given) | -40.73% | 6.806% |
| 25 | `Cn1c(C(=O)NCC2(N)CCCC2)cc2ccccc21` | -2.049% | 3.96% |
| 26 | `Cc1cc(-c2nc(C3(NC(=O)OC(C)(C)C)CCC3)no2)on1` | - | 14.04% |
| 27 | `COCCN1C(=O)CC[C@@H]2[C@H]1CCN2C(=O)C1CCOCC1` | -42.02% | 16% |
| 28 | `CN1CCN(C2COC3(CCN(Cc4ccc(F)cc4)CC3)C2)CC1` (stereo not given) | -5.675% | 18% |
| 29 | `Cn1ccc2ccnc(CC3CN(C(=O)C4CCC(F)(F)CC4)C3)c21` | -26.97% | 13.89% |
| 30 | `O=C(NCc1ccco1)[C@H]1C[C@@H]2CCN(c3cccc(F)c3)C[C@H]2O1` | - | 25% |
| 31 | `O=C([C@H]1CCS(=O)(=O)[C@@H]2CN(Cc3ccc(F)cc3)C[C@H]12)N1CCCC1` | -25.94% | 9.244% |
| 32 | `COC(=O)C(NC(=O)c1cc(F)cc(F)c1)c1cccnc1` (stereo not given) | -2.746% | 13.33% |
| 33 | `Cc1cc(CC(C)Nc2nc(C3CCCC3)nc3c2cnn3C)[nH]n1` (stereo not given) | -36.32% | 8.571% |
| 34 | `Cn1cccc1-c1cc(C(=O)N2CC(c3cccnc3)C2)[nH]n1` | 0.6338% | 13.33% |
| 35 | `COc1ccccc1CCNC(=O)CN1CCCC1c1noc(C)n1` (stereo not given) | -9.581% | 24.8% |
| 36 | `COc1ccc(-c2noc([C@@H]3C[C@@H](O)CN3C3CCN(C)CC3)n2)cc1` | - | 9.459% |
| 37 | `CN(C)c1ncnc2c1CCN(c1ccccc1)CC2` | 5.455% | 8% |
| 38 | `COCCC(=O)N1CCC2(CCN(Cc3ccc(OC)c(F)c3)C2)C1` (stereo not given) | -2.5% | 7.407% |
| 39 | `CS(=O)(=O)N1CCC(n2nnn(-c3ccccc3)c2=O)CC1` | 6.163% | 7.194% |
| 40 | `COc1cccc(CN2CCC3(COCc4cnc(N(C)C)nc43)C2)c1` (stereo not given) | 111.1% | 27.03% |
| 41 | `Cc1nc(CN2CCN(C(=O)c3scnc3C)CC2)cs1` | 4.772% | 13.48% |
| 42 | `O=C(CN1CCCS1(=O)=O)Nc1ccc(OC(F)F)cc1` | -20.88% | 13.43% |
| 43 | `CCCN(Cc1ccccn1)Cc1ccccc1OC` | -20.14% | 15.38% |
| 44 | `CCOC(=O)N1CCN(C(=O)c2cc(OCC)c3ccoc3c2)CC1` | 22.83% | 30.86% |
| 45 | `COCCN1CCC(C(=O)N(C)Cc2cccc(Cl)c2)C1` (stereo not given) | -11.1% | 8.73% |
| 46 | `CCn1nc(C)c(NC(=O)CN(C)C(C)c2nccs2)c1C` (stereo not given) | -0.8107% | 17.33% |
| 47 | `COc1ccccc1S(=O)(=O)N1CCC2(CC1)OCCCC2O` (stereo not given) | 13.87% | 5.556% |
| 48 | `CCCc1nnc(SCc2cc(=O)n3c4c(sc3n2)CCCC4)[nH]1` | -15.26% | 27.17% |
| 49 | `COCCc1noc(CN(C)C2CCCN(c3cccnn3)C2)n1` (stereo not given) | -15.65% | 3.571% |
| 50 | `CCc1nc2n(n1)CC(NCc1nnc(C(C)C)o1)CC2` (stereo not given) | -12.98% | 9.649% |
| 51 | `O=C(Cc1ccc2c(c1)OCCO2)N1CCCC(n2cncn2)C1` (stereo not given) | -22.44% | 6.612% |
| 52 | `CCN1CC(COc2ccc(OC)cc2)Oc2ccncc2S1(=O)=O` (stereo not given) | 20% | 14.43% |
| 53 | `CC(C)(C)c1ccc(C2(C(=O)NCCCS(C)(=O)=O)CC2)cc1` | -6.16% | 8.491% |
| 54 | `O=S(=O)(NCC1COc2ccccc2C1)N1CCCCC1` (stereo not given) | 12.23% | 12.94% |
| 55 | `CC(C)NC(=O)C1CN(C(N)=O)Cc2ccnn2C1` (stereo not given) | -11.03% | 13.21% |
| 56 | `O=S(=O)(Cc1ccc(F)cc1)NCc1nnc2n1CCC2` | -2.117% | 18.42% |
| 57 | `CC(C)CN1CC(c2nc(-c3cccc(F)c3)c[nH]2)CC1=O` (stereo not given) | -41.92% | -5.333% |
| 58 | `Cc1nc(Cc2ccccc2)nc2sc(C(=O)O)c(C)c12` | 5.059% | 0% |
| 59 | `c1cnc(N2CCN(Cc3nnnn3C3CC3)CC2)nc1` | -44.65% | 8.621% |
| 60 | `Cc1cc(C)n(CC2CN(CC(=O)NC3(C#N)CCCC3)CCO2)n1` (stereo not given) | -14.21% | 15.65% |
| 61 | `CCc1ccc(-c2cn(CCSc3ncn[nH]3)nn2)nc1` | -30.8% | 19.35% |
| 62 | `Cn1nccc1C(=O)N1CCC(n2cc(-c3ccsc3)nn2)CC1` | 1.745% | 6.452% |
| 63 | `COc1ccc2c(c1)OCC(Cc1ccc(CN)cn1)C2` (stereo not given) | -11.46% | 30.3% |

Some entries from above, unchanged:

| Compound | Pks13 thioesterase | LiHisRS |
|---|---|---|
| `CCOc1ccc(NC(C)C(=O)NCCc2cccs2)cc1CO` (stereo not given) | -1.413% | 33.87% |
| `CCN1CC(COc2ccc(OC)cc2)Oc2ccncc2S1(=O)=O` (stereo not given) | 20% | 14.43% |
| `Cc1nnc(CSc2ccccn2)o1` | -5.402% | 16.44% |
| `O=S(=O)(NCC1COc2ccccc2C1)N1CCCCC1` (stereo not given) | 12.23% | 12.94% |
| `CCOC(=O)N1CCN(C(=O)c2cc(OCC)c3ccoc3c2)CC1` | 22.83% | 30.86% |
| `O=C([C@H]1CCS(=O)(=O)[C@@H]2CN(Cc3ccc(F)cc3)C[C@H]12)N1CCCC1` | -25.94% | 9.244% |
| `CC[C@H]1COCCN1C(=O)c1cnc(N2CCN(C)CC2)nc1C` | -2.989% | 16.67% |
| `CN(C)c1ncnc2c1CCN(c1ccccc1)CC2` | 5.455% | 8% |